Results as given in patent US4904593A (priority 1986, dated 1990).
At least one compound was matched to its structure with a doubt left.

Test system: purified esterase
Assay: Hydrolysis activity to choline ester, Cholinesterase B-test (Table 2)
Assay type: biochemical, Bacillus sp. DC-1
Conditions: substrate 100 μM; choline liberated per minute

Row | Compound | Activity
1 | CC(=O)OCC[N+](C)(C)C [Acetyl choline] | 0 nmol/min
2 | C[N+](C)(C)CCOC(=O)c1ccccc1 [Benzoyl choline] | 0 nmol/min
